No constants are given. Whether binding was seen depends on the method and setting. For some assays here: Binding seen in cells or lysates may run through a third protein. Some results given as binding are weak or reduced against the parent protein; the word gives no strength. Where a sequence is shown, tags or fusion partners need not be part of it.
T1: CP190 1–126 (BTB domain), tag cleaved, crystallised (Drosophila melanogaster), Q24478
T1 chain: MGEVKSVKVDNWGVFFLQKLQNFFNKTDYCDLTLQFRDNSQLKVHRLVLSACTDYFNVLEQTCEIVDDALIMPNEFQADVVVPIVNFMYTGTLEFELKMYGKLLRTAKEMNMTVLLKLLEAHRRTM

T2: GST-fused Pita 95–193 (Drosophila melanogaster) (UniProt Q95RQ8)
T2 sequence: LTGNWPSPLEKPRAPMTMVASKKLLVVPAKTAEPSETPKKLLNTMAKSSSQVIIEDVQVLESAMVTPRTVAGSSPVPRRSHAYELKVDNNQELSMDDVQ

T3: GST-fused Su(Hw) 1–150 (Drosophila melanogaster) (UniProt P08970)
T3 sequence: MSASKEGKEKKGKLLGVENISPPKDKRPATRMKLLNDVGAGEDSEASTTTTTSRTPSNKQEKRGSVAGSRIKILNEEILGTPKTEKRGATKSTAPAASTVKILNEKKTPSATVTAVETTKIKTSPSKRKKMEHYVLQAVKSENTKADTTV

T4: GST-fused Pita 220–232 (Drosophila melanogaster) (UniProt Q95RQ8)
T4 sequence: KVLNKSSIRILNK

T5: CP190 D domain fused to the GAL4 DNA-binding domain (Drosophila melanogaster) (UniProt Q24478)
T5 sequence: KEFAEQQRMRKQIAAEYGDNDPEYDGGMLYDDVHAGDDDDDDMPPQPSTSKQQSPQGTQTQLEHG

T6: CP190 M domain (309–470) fused to the GAL4 DNA-binding domain (Drosophila melanogaster) (UniProt Q24478)
T6 sequence: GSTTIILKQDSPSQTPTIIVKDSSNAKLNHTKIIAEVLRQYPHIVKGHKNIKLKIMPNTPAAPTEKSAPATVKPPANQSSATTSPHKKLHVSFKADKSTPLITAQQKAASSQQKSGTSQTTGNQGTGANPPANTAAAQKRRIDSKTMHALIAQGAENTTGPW

B1: CP190 1–126 (BTB domain), tag cleaved, crystallised, Q24478 1-126 (domain or fragment)
chain: MGEVKSVKVDNWGVFFLQKLQNFFNKTDYCDLTLQFRDNSQLKVHRLVLSACTDYFNVLEQTCEIVDDALIMPNEFQADVVVPIVNFMYTGTLEFELKMYGKLLRTAKEMNMTVLLKLLEAHRRTM
B2: 6×His-Thioredoxin-fused CP190 1–126 V7A (domain or fragment, Drosophila melanogaster, UniProt Q24478 1-126, looked up)
chain: MGEVKSAKVDNWGVFFLQKLQNFFNKTDYCDLTLQFRDNSQLKVHRLVLSACTDYFNVLEQTCEIVDDALIMPNEFQADVVVPIVNFMYTGTLEFELKMYGKLLRTAKEMNMTVLLKLLEAHRRTM
notes: CP190, Drosophila melanogaster, residues 1–126 (BTB domain); also called BTB^V7A; source: E. coli BL21, co-expressed with the GST fusion, in lysate (pull-down); bacterial expression (cross-linking)
B3: 6×His-Thioredoxin-fused CP190 1–126 V114N (domain or fragment, Drosophila melanogaster, UniProt Q24478 1-126, looked up)
chain: MGEVKSVKVDNWGVFFLQKLQNFFNKTDYCDLTLQFRDNSQLKVHRLVLSACTDYFNVLEQTCEIVDDALIMPNEFQADVVVPIVNFMYTGTLEFELKMYGKLLRTAKEMNMTNLLKLLEAHRRTM
notes: CP190, Drosophila melanogaster, residues 1–126 (BTB domain); source: E. coli BL21, co-expressed with the GST fusion, in lysate (pull-down); bacterial expression (cross-linking)
B4: 6×His-Thioredoxin-fused CP190 1–126 K19A (domain or fragment, Drosophila melanogaster, UniProt Q24478 1-126, looked up)
chain: MGEVKSVKVDNWGVFFLQALQNFFNKTDYCDLTLQFRDNSQLKVHRLVLSACTDYFNVLEQTCEIVDDALIMPNEFQADVVVPIVNFMYTGTLEFELKMYGKLLRTAKEMNMTVLLKLLEAHRRTM
notes: as for B3
B5: 6×His-Thioredoxin-fused CP190 1–126 K117S (domain or fragment, Drosophila melanogaster, UniProt Q24478 1-126, looked up)
chain: MGEVKSVKVDNWGVFFLQKLQNFFNKTDYCDLTLQFRDNSQLKVHRLVLSACTDYFNVLEQTCEIVDDALIMPNEFQADVVVPIVNFMYTGTLEFELKMYGKLLRTAKEMNMTVLLSLLEAHRRTM
notes: as for B3
B6: 6×His-Thioredoxin-fused CP190 1–126 V114A (domain or fragment, Drosophila melanogaster, UniProt Q24478 1-126, looked up)
chain: MGEVKSVKVDNWGVFFLQKLQNFFNKTDYCDLTLQFRDNSQLKVHRLVLSACTDYFNVLEQTCEIVDDALIMPNEFQADVVVPIVNFMYTGTLEFELKMYGKLLRTAKEMNMTALLKLLEAHRRTM
notes: as for B3
B7: 6×His-Thioredoxin-fused CP190 1–126 F15A (domain or fragment, Drosophila melanogaster, UniProt Q24478 1-126, looked up)
chain: MGEVKSVKVDNWGVAFLQKLQNFFNKTDYCDLTLQFRDNSQLKVHRLVLSACTDYFNVLEQTCEIVDDALIMPNEFQADVVVPIVNFMYTGTLEFELKMYGKLLRTAKEMNMTVLLKLLEAHRRTM
notes: as for B3
B8: Pita fused to the GAL4 activation domain (protein, UniProt Q95RQ8 1-683)
chain: MAAKLEVREAMLTEKRVCRFCLTEQKLASIFEENPRVKTTANLPLQIMAITAIEVYAGDGMPGHICLECRLLFEHCYRFKQMCKRAETLLRQYPLTGNWPSPLEKPRAPMTMVASKKLLVVPAKTAEPSETPKKLLNTMAKSSSQVIIEDVQVLESAMVTPRTVAGSSPVPRRSHAYELKVDNNQELSMDDVQSMLEDMASELEKEFPDIPQKASPVKPKVLNKSSIRILNKGPAAPVEPRLATPKVKRDDSGNVAIVTEVLDSDLPLDDQDDPTKNAEKVATDVFPCPDCERSFPLQQLLEIHRLNHTRSRSFQCLLCEKSFFSKYDLAKHNFVHTGERPFKCAICSKAFTRKALLHRHERTHTDVPKFICVYCEKPFLSRQEMEKHAERHQKKRPFQCGVCTKSFAFKQGLERHETVHSTNLPFPCQHCERSFSTASKLARHLVAHAGKRAYPCKYCHKSYMLSHHLSRHLRTHTQTSDASFVCSECKVSYSNYNDLLDHALIHATASLKCPMCRKQIEDIDSVESHMDQHKQSERHACEFCDHIFLTQKCLQRHIEDDHVVEMEPYQNEFEDDGEGEGGVDEKEEHLDDFEDMDNVKQEEFVTEYLEDDALYEDHLDDSDESFTPPPPKQRKTNPPKDAQQSVRQTRSRDAQRITQKTGKNEGKPHHKLERNLKNRRSAK
B9: dCTCF fused to the GAL4 activation domain (protein, UniProt Q9VS55 1-818)
chain: MPRRTKKDEDPEDLQTFLNNFHKEIEGNSDEKVVNTILEAISAEAIDLDENGAEAGGSKPMEEAEADLDHAEEAEEEEEDDEDKYFIDDEGNCYIKTTPKKQKELQKKLKQAAAKPGKATRSVVSTATNKSINLRPAKSTPKATTSKPPPEPKAISVRPARAAAAKAKQSAMPPPPALVVKVPAPRGRPRKNPVIPKPEPMDLERELEELVDEPDISSMVTELSDYTVDEAAVEAATATLTPNEAEVYEFEDNATTEDENADKKDVDFVLSNKEVKLKTASSTSQNSNASGHKYSCPHCPYTASKKFLITRHSRSHDVEPSFKCSICERSFRSNVGLQNHINTHMGNKPHKCKLCESAFTTSGELVRHTRYKHTKEKPHKCTECTYASVELTKLRRHMTCHTGERPYQCPHCTYASQDMFKLKRHMVIHTGEKKYQCDICKSRFTQSNSLKAHKLIHSVVDKPVFQCNYCPTTCGRKADLRVHIKHMHTSDVPMTCRRCGQQLPDRYQYKLHVKSHEGEKCYSCKLCSYASVTQRHLASHMLIHLDEKPFHCDQCPQAFRQRQLLRRHMNLVHNEEYQPPEPREKLHKCPSCPREFTHKGNLMRHMETHDDSANAREKRRRLKLGRNVRLQKDGTVITLIKDQYVDMDRDQEENEEDDNPESYDLAEIEPENSEAEDADDDVETIVSDPIRQRIKPAPIIINKQARLAASEKQPMIINQRLRSQRGTKTFHIKEEPDNSDFTVEWQGDDGEVMVVELVNGDEEVLVKHEPSANSKISAKNCFGFEDDDDYEEYGDGENEVDGASQEFLQLMDMIEQDS
B10: Su(Hw) fused to the GAL4 activation domain (protein, UniProt P08970 1-941)
chain: MSASKEGKEKKGKLLGVENISPPKDKRPATRMKLLNDVGAGEDSEASTTTTTSRTPSNKQEKRGSVAGSRIKILNEEILGTPKTEKRGATKSTAPAASTVKILNEKKTPSATVTAVETTKIKTSPSKRKKMEHYVLQAVKSENTKADTTVTVVTEEDDTIDFILADDEEVVPGRIENNNGQEIVVTEDDEDLGEDGDEDGEDSSGKGNSSQTKIKEIVEHVCGKCYKTFRRVQSLKKHLEFCRYDSGYHLRKADMLKNLEKIEKDAVVMEKKDICFCCSESYDTFHLGHINCPDCPKSFKTQTSYERHIFITHSEFSDFPCSICNANLRSEALLALHEEQHKSRGKPYACKICGKDFTRSYHLKRHQKYSSCSSNETDTMSCKVCDRVFYRLDNLRSHLKQHLGTQVVKKPEYMCHTCKNCFYSLSTLNIHIRTHTGEKPFDCDLCDKKFSALVALKKHRRYHTGEKPYSCTVCNQAFAVKEVLNRHMKRHTGERPHKCDECGKSFIQATQLRTHSKTHIRPFPCEQCDEKFKTEKQLERHVKTHSRTKRPVFSCAECKRNFRTPALLKEHMDEGKHSPKQQRSSMRSAVKIMERTDCAICDKNFDSSDTLRRHIRTVHECDPDDIFGVEPHPSKRAKKDIESEEVVPVALNTSAGSLISSQTDGNGVVVREFLVDEGDGAAQTITLENETYTILPLDGAIEGEQLTDEAGVKPEAKKEEAQVSPVVKKEQRKSLAASLAAAIADNLEESCSEDDFSGEILTEEDIKLKENVGKLIDMLVDPPILKKYGWPNAPEETVLCKVIENCGHDLTKGGENYAELDYGSRMREYCKLLFTVVIHNDSIKSLLNNFPIDDVIEYVLGDEDQDEGGLDKDNESHSGDEEAVSVTGETKTNEIREKPEKKEVSAKSEKKEIVGKAVDKDNSEEVVRENKKKPVGEQEKA

What was measured:
[1] = biological target: T1, CP190 1–126 (BTB domain), tag cleaved, …; assay: crystal structure; CP190 1–126, counter-diffusion in capillaries, 0.1 M HEPES pH 7.5, ammonium and potassium phosphate, +20 °C; 1.4 Å; dimer in the crystal; both purified; conditions: remark: other sources report otherwise
[2] = biological target: GST-fused dCTCF 715–733 (Drosophila melanogaster) (UniProt Q9VS55); assay: pull-down
[3] = biological target: T2, GST-fused Pita 95–193 (Drosophila melanogaster); assay: pull-down; GST pull-down from lysate of BL21 cells co-expressing the GST-fused C2H2 fragment and 6×His-Thioredoxin-fused CP190 1–126; glutathione agarose, buffer C (20 mM Tris pH 7.5, 150 mM NaCl, 10 mM MgCl2, 0.1 mM ZnCl2, 0.1% NP40, 10% glycerol, 1 mM DTT), +4 °C, washes with 500 mM NaCl
[4] = biological target: T3, GST-fused Su(Hw) 1–150 (Drosophila melanogaster); assay: as above
[5] = biological target: T4, GST-fused Pita 220–232 (Drosophila melanogaster); assay: as above
[6] = biological target: T5, CP190 D domain fused to the GAL4 DNA-binding domain (Drosophila melanogaster); assay: two-hybrid; C2H2 proteins or their fragments fused to the GAL4 activation domain (pGAD424), CP190 BTB, D or M domain or full-length CP190 fused to the GAL4 DNA-binding domain (pGBT9); yeast strain pJ69-4A; growth on media without tryptophan, leucine, histidine and adenine compared after 2–3 days, 30 °C; includes the screen of a library of 154 C2H2 proteins
[7] = biological target: T6, CP190 M domain (309–470) fused to the GAL4 DNA-binding domain (Drosophila melanogaster); assay: as above

| Binder | binding [3] | binding [5] | binding [6] | binding [7] | also measured |
| --- | --- | --- | --- | --- | --- |
| B1 | – | – | – | – | binding [1]: binds |
| B2 | binds | – | – | – | binding [2]: binds; binding [4]: binds |
| B3 | binds | binds | – | – | – |
| B4 | binds | binds | – | – | – |
| B5 | binds | binds | – | – | – |
| B6 | binds | binds | – | – | – |
| B7 | binds | binds | – | – | – |
| B8 | – | – | no binding | no binding | – |
| B9 | – | – | no binding | binds | – |
| B10 | – | – | no binding | no binding | – |
